Laboratory results published in PubChem BioAssay AID540256 (National Center for Advancing Translational Sciences (NCATS), 2011).
Where “and” joins values, the source holds several entries; their conditions need not be identical. Identical values can stand only once. Out of some 300,000 compounds screened, about 3,700 (1.2%) were called active. The shares of active, inactive and inconclusive entries below differ from those in the screen. Calls follow the shape of the full dose curve; tested in HEK293 cells. Potencies beside an inconclusive call are fits to weak or partial responses and may not hold up.
% is scaled to controls: 0 for no effect and ±100 for the full control effect; potency is read from the fitted curve at half-maximal effect.

Assay: qHTS for Inhibitors of binding or entry into cells for Lassa Virus; also: nearly all actives have a fitted effect of over 50% in size
Conditions: Lassa virus pseudotype entry inhibition, cell reporter; activity change, negative = inhibition: at 37.9 µM (top of the series) unless noted
For `CCOC(=O)Nc1ccc(C)cc1Br`, the “activity change, negative = inhibition” value was inactive: 2.09%.
For `CCOC(=O)c1c(C)[nH]c(C(=O)CSc2nccc(C)n2)c1C`, the Potency was inconclusive: 2.06 µM [activator, full curve].
With `CCCC(=O)Nc1ccc2c(c1)nc(CCN1CCCCC1)n2C` the Potency was inconclusive: 5.62 µM [activator, single point].
For `CC(=O)Nc1ccccc1-c1nc2ccccc2n(Cc2cccc(Br)c2)c1=O`, the “activity change, negative = inhibition” value was inactive: 10.2% [at 46.1 µM].
For `Cc1cccc(N2CCN(C(=S)c3ccc4c(c3)OCO4)CC2)c1`, the Potency was inconclusive: 1.78 µM [inhibitor, partial curve, poor fit].
With `O=C(Cn1ccc2cc(S(=O)(=O)N3CCCCC3)ccc21)NCc1cccc(Cl)c1` the Potency was inconclusive: 35.5 µM [inhibitor, single point].
For `Cc1ccc(-n2nc(C)c(NC(=O)CCl)c2C)cc1C`, the Potency was active: 11.2 µM.
For `CC(C)c1cccc(C(C)C)c1NC(=O)CCl`, the Potency was inconclusive: 0.891 µM [inhibitor, single point].
For `CCCOc1ccc(C(=O)N(Cc2ccc(N(C)C)cc2)CC2CCCO2)cc1` (stereo unspecified), the Potency was inconclusive: 1.58 µM [inhibitor, full curve].
In the case of `O=C1C2(c3ccccc3)CN3CN(C2)CC1(c1ccccc1)C3`, the “activity change, negative = inhibition” value is reported as inactive: 6.71%.
With `O=C(O)Cc1ccc(NC(=O)Nc2cccc3ccccc23)cc1` the Potency was inconclusive: 35.5 µM [activator, single point].
For `C=CCNC(=S)NNC(=O)C(CCCC)CC(C)O` (stereo unspecified), the Potency was inconclusive: 11.2 µM [activator, partial curve].
For `O=C(Nc1ccc(Cl)c(Cl)c1)OCc1cccnc1`, the Potency was inconclusive: 20.6 µM [activator, single point].
With `Cc1ccc(C(=O)N(CC(=O)NC2CCCCC2)c2ccccc2F)s1` the Potency was inconclusive: 1.26 µM [inhibitor, single point].
For `COc1cccc(OCC(O)CN2CCC(CN3C(=O)c4cccc5cccc(c45)C3=O)CC2)c1` (stereo unspecified), the Potency was inconclusive: 35.5 µM [inhibitor, single point].
With `COc1ccc(C(=O)O/N=C(\N)c2ccccn2)cc1[N+](=O)[O-]` the Potency was inconclusive: 35.5 µM [inhibitor, single point].
With `Cc1ccc(NC(=O)C(NC2CCCC2)c2ccccc2)cc1Cl` (stereo unspecified) the Potency was inconclusive: 1.26 µM [inhibitor, single point].
In the case of `Cc1ccccc1OCC(=O)OCC(=O)c1cc(C)n(C2CC2)c1C`, the “activity change, negative = inhibition” value is reported as inactive: -7.84%.
In the case of `N#CCCN(Cc1cccs1)C(=O)Nc1ccccc1`, the Potency is reported as inconclusive: 2.51 µM [activator, partial curve, poor fit].
In the case of `CC(=O)c1ccc(N2CCN(C(=O)c3ccc(S(=O)(=O)NCc4ccco4)cc3)CC2)cc1`, the “activity change, negative = inhibition” value is reported as inactive: -18.3% [at 46.1 µM].
In the case of `Cc1ccc(NC(=O)N2CCC(c3ccccc3)C2)cc1C` (stereo unspecified), the Potency is reported as “inactive and inconclusive: 3.98 µM [inhibitor, full curve, poor fit]”.
With `Cn1c(=O)n(C)c2cc([N+](=O)[O-])c(N3CCN(C(=O)c4cccc(F)c4)CC3)cc21` the Potency was inconclusive: 3.55 µM [inhibitor, partial curve].
For `COc1cccc(CSc2nnc(-c3ccco3)n2C)c1`, the “activity change, negative = inhibition” value was inactive: 11.7%.
With `COc1cc(OC)c(N(C)S(=O)(=O)c2cccc(C(=O)OCC(=O)N(C)C3CCCCC3)c2)cc1Cl` the Potency was inconclusive: 11.2 µM [inhibitor, single point].
In the case of `O=C(N/N=C/c1c(O)ccc2ccccc12)c1cccnc1`, the Potency is reported as inconclusive: 12.6 µM [inhibitor, partial curve, poor fit].
In the case of `COc1cccc(C(C(=O)NC(C)(C)C)N(C(=O)CCC(=O)Nc2cc(C)on2)C2CC2)c1OC` (stereo unspecified), the “activity change, negative = inhibition” value is reported as inactive: 0.89%.
For `CCCC1CCc2c(sc(N)c2C(N)=O)C1` (stereo unspecified), the Potency was inconclusive: 6.31 µM [inhibitor, single point].
For `COc1ccc(-c2c(C)nn(-c3ccccc3)c2N)cc1`, the Potency was inconclusive: 4.11 µM [activator, full curve, poor fit].
With `O=C(c1ccc2c(c1)N(Cc1ccccc1)C(=O)c1ccccc1S2(=O)=O)N1CCCCCC1` the Potency was inconclusive: 35.5 µM [inhibitor, partial curve, poor fit].
For `CC(C)Cn1c(=O)c(C(=O)NCc2ccccn2)c(O)c2ccccc21`, the Potency was inconclusive: 12.6 µM [inhibitor, single point].
For `CCOC(=O)c1c(CN2CCN(CCO)CC2)n(C)c2cc(Br)c(OC)cc12`, the Potency was inconclusive: 32.6 µM [inhibitor, single point].
With `CC(Oc1ccc2oc(-c3ccccc3)c(C(=O)O)c2c1)C(=O)O` (stereo unspecified) the “activity change, negative = inhibition” value was inactive: 1.09%.
With `Cc1ccc(S(=O)(=O)c2c(Nc3cc(F)ccc3F)sc(C(=O)c3ccc(F)cc3)c2N)cc1` the Potency was inconclusive: 3.98 µM [inhibitor, partial curve].
For `COCCN(C(=O)c1csnn1)C(C(=O)NC1CCCCC1)c1ccccc1` (stereo unspecified), the “activity change, negative = inhibition” value was inactive: 10.7% [at 46.1 µM].
In the case of `CCN(CC)CCN(C(=O)c1ccco1)c1nc2ccc(Br)cc2s1`, the Potency is reported as inconclusive: 1.58 µM [activator, partial curve, poor fit].
For `CCCOc1ccc(-c2nc(SC)[nH]c(=O)c2C#N)cc1OC`, the Potency was inconclusive: 35.5 µM [inhibitor, partial curve, poor fit].
For `C=CCNC(=O)c1ccccc1NC(=O)Cc1ccccc1[N+](=O)[O-]`, the Potency was inconclusive: 0.794 µM [activator, single point].
In the case of `O=C(CNC(=O)c1ccccc1Cl)N/N=C/c1ccc2c(c1)OCO2`, the “activity change, negative = inhibition” value is reported as inactive: 13.6% [at 46.1 µM].
In the case of `O=c1nc(N/N=C/C=C/c2ccccc2)cn[nH]1`, the Potency is reported as active: 2.24 µM.
In the case of `CC1CCN(C(=O)/C=C/c2ccc(C(C)(C)C)cc2)CC1`, the Potency is reported as inconclusive: 32.6 µM [inhibitor, single point].
In the case of `COC(=O)c1ccc(-c2ccc(/C=N/N3C(=O)C4C5C=CC(C6CC56)C4C3=O)o2)cc1` (stereo unspecified), the Potency is reported as inconclusive: 20.6 µM [activator, single point].
For `O=C(COc1ccccc1C(=O)c1cnn(-c2ccccc2)c1)Nc1ccccc1`, the “activity change, negative = inhibition” value was inactive: -25.6%.
With `Cc1cccc(NC(=O)CSc2nncn2C)c1` the “activity change, negative = inhibition” value was inactive: 20.7% [at 46.1 µM].
In the case of `Cc1ccc(NC(=O)Cc2csc(C)n2)c(C)c1`, the “activity change, negative = inhibition” value is reported as inactive: 18.7% [at 46.1 µM].
In the case of `C/C(=N\NC(=O)c1nnn(-c2nonc2N)c1-c1cccs1)c1cccnc1`, the Potency is reported as inconclusive: 22.4 µM [activator, single point].
For `O=C1Nc2ccccc2/C1=N/N=C/c1cccc(O)c1`, the Potency was inconclusive: 1.12 µM [inhibitor, full curve, poor fit].
With `CCOC(=O)C1CCN(C2CCN(Cc3nc(-c4ccccc4)no3)CC2)CC1` the Potency was inconclusive: 35.5 µM [inhibitor, single point].
For `COc1cc2c(cc1O)CC[C@@H]1[C@@H]2CC[C@]2(C)[C@@H](O)CC[C@@H]12`, the Potency was inconclusive: 11.6 µM [inhibitor, partial curve].
In the case of `CCCCN1C2=NCCCN2c2cc(C)c(C)cc21`, the Potency is reported as inconclusive: 10 µM [inhibitor, partial curve, poor fit].
In the case of `O=C(Nc1ccccc1)Nc1ccc(C(=O)N2CCCC2)cc1`, the Potency is reported as inconclusive: 0.891 µM [inhibitor, full curve, poor fit].
With `Cc1cc2sc3nc(=O)n(-c4ccccc4)c(=O)n3c2cc1C` the Potency was inconclusive: 1 µM [activator, full curve, poor fit].
In the case of `Cc1ccccc1CN1C(=O)c2ccccc2Sc2ccc(C(=O)N3CCCC3)cc21`, the Potency is reported as inconclusive: 4.47 µM [inhibitor, partial curve, poor fit].
For `CC(C)N1C(=O)CC2(CC[N+](C)(CCOC(=O)C(c3ccccc3)c3ccccc3)CC2)C1=O` (stereo unspecified), the Potency was inconclusive: 12.6 µM [activator, single point].
For `Cc1ccc(S(=O)(=O)N(CC(=O)N2CCN(c3ccc(F)cc3)CC2)C2CCCCC2)cc1`, the Potency was inconclusive: 9.2 µM [inhibitor, partial curve, poor fit].
With `COc1ccc(CN(C)C(C)C(=O)Nc2ccc([N+](=O)[O-])cc2Cl)cc1OC` (stereo unspecified) the Potency was inconclusive: 12.6 µM [inhibitor, single point].
For `CCCCn1nc(NC(=O)c2cccc(Cl)c2)c2cc3ccccc3nc21`, the “activity change, negative = inhibition” value was inactive: 2.93% [at 46.1 µM].
In the case of `COc1ccc(OC)c(C2CC(c3c(-c4ccccc4)c4cc(Cl)ccc4[nH]c3=O)=NN2S(C)(=O)=O)c1` (stereo unspecified), the Potency is reported as inconclusive: 3.98 µM [inhibitor, partial curve, poor fit].
In the case of `O=C(Nc1ccccc1)c1ccc(S(=O)(=O)N2CCOCC2)cc1`, the “activity change, negative = inhibition” value is reported as inactive: 1.66%.
In the case of `O=C(NCc1ccccc1)c1ccc(CSc2nc3cccnc3n2Cc2cccc(F)c2)cc1`, the Potency is reported as inconclusive: 35.5 µM [inhibitor, single point].
With `C/C(=N\NC(=O)c1ccn[nH]1)c1cn(C)nc1C` the Potency was inconclusive: 35.5 µM [inhibitor, single point].
In the case of `COc1cc(OC)c(C(=O)OC(C)C(=O)Nc2cc(C(F)(F)F)ccc2Cl)cc1OC` (stereo unspecified), the Potency is reported as inconclusive: 22.4 µM [inhibitor, single point].
For `O=C(NCc1ccc(F)cc1)c1ccc2c(O)c(S(=O)(=O)c3ccccc3)c(=O)[nH]c2c1`, the “activity change, negative = inhibition” value was inactive: -18.1% [at 46.1 µM].
With `COc1cc2nc(C3CCC3)nc(N3CCN(c4ccccn4)CC3)c2cc1OC` the Potency was inconclusive: 3.26 µM [inhibitor, partial curve, poor fit].
With `CN1CCC(=NNC(=O)CSc2ccc(Cl)cc2)CC1` the Potency was inconclusive: 11.2 µM [inhibitor, partial curve, poor fit].
For `COC(=O)c1ccc(COc2ccc(C)cc2[N+](=O)[O-])o1`, the “activity change, negative = inhibition” value was inactive: 19.2%.
With `CSc1ccc(/C=C(\NC(=O)c2ccccc2)C(=O)NCCN2CCOCC2)cc1` the Potency was inconclusive: 5.62 µM [inhibitor, single point].
